PubChem BioAssay AID652243, Drosophila RNAi Screening Center | 2013
The deposit covers about 24,000 reagents; shown is an unselected part of those with a known target gene and a result. In the full data, 246 (1%) were called active. 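Plates not normalised; calls are printed but the firefly/Renilla ratio behind them is not deposited; fold cut for lowering reported inconsistently.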 Raw values vary from plate to plate and are shown uncorrected. Entries without a mark were called inactive. Reagents against one gene are numbered here. The record does not give: the amount of reagent.

- Screen: 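Fly genes required for human androgen receptor driven transcription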 (primary screen)
- Cell system: Drosophila S2R+ cells
- Knock-down reagent: long dsRNA against Drosophila genes
- Duration: 72 h (48 h, then 24 h hormone)
- Challenge: synthetic androgen R1881 at 10 nM for 24 h
- Detection: 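Per-well raw luminescence of the androgen-driven firefly reporter and of the Renilla control, two replicates each, without normalisation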
- Direction: firefly reporter light: higher = more light from androgen-responsive reporter; Renilla control light: higher = more constitutive control signal (cell number, transfection)
- Call rule: 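Hit when the log firefly-to-Renilla ratio dropped or increased by a fixed fold versus the mean of GFP or LacZ controls across duplicate plates; lowering cut given as 1.5 and as 3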
- Meaning of the calls: active = hit: reporter lowered or raised; inactive = no hit

Trf4-2 #1 | firefly reporter light, replicate 1: 94639; firefly reporter light, replicate 2: 1.21e5; Renilla control light, replicate 1: 2.74e6; Renilla control light, replicate 2: 2.31e6
Trf4-2 #2 | firefly reporter light, replicate 1: 3.00e5; firefly reporter light, replicate 2: 4.05e5; Renilla control light, replicate 1: 8.26e5; Renilla control light, replicate 2: 8.99e5
Kebab #1 | firefly reporter light, replicate 1: 7.58e5; firefly reporter light, replicate 2: 8.89e5; Renilla control light, replicate 1: 2.97e6; Renilla control light, replicate 2: 2.16e6
Kebab #2 | firefly reporter light, replicate 1: 3.37e5; firefly reporter light, replicate 2: 2.72e5; Renilla control light, replicate 1: 7.71e5; Renilla control light, replicate 2: 7.71e5
kmr #1 | firefly reporter light, replicate 1: 61992; firefly reporter light, replicate 2: 1.18e5; Renilla control light, replicate 1: 1.86e6; Renilla control light, replicate 2: 2.69e6
kmr #2 | firefly reporter light, replicate 1: 1.05e5; firefly reporter light, replicate 2: 1.06e5; Renilla control light, replicate 1: 1.66e6; Renilla control light, replicate 2: 2.26e6
kmr #3 | firefly reporter light, replicate 1: 73934; firefly reporter light, replicate 2: 27266; Renilla control light, replicate 1: 2.26e5; Renilla control light, replicate 2: 2.05e5
kmr #4 | firefly reporter light, replicate 1: 4.24e5; firefly reporter light, replicate 2: 4.56e5; Renilla control light, replicate 1: 9.51e5; Renilla control light, replicate 2: 8.78e5
kmr #5 | firefly reporter light, replicate 1: 4.79e5; firefly reporter light, replicate 2: 7.53e5; Renilla control light, replicate 1: 9.61e5; Renilla control light, replicate 2: 1.09e6
tbrd-2 | firefly reporter light, replicate 1: 90922; firefly reporter light, replicate 2: 75013; Renilla control light, replicate 1: 8.33e5; Renilla control light, replicate 2: 8.74e5
CG33795 | firefly reporter light, replicate 1: 7.38e5; firefly reporter light, replicate 2: 7.51e5; Renilla control light, replicate 1: 1.54e6; Renilla control light, replicate 2: 1.62e6
Pld3 | firefly reporter light, replicate 1: 9.99e5; firefly reporter light, replicate 2: 1.01e6; Renilla control light, replicate 1: 2.81e6; Renilla control light, replicate 2: 2.50e6

Reformatted: results already given
predicted target | dsRNA no. | firefly reporter light, replicate 1 | firefly reporter light, replicate 2 | Renilla control light, replicate 1 | Renilla control light, replicate 2
kmr | 2 | 1.05e5 | 1.06e5 | 1.66e6 | 2.26e6
kmr | 3 | 73934 | 27266 | 2.26e5 | 2.05e5
